PubChem BioAssay AID1259314 | Drosophila RNAi Screening Center, 2017
Aim: 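Genes whose knock-down alters cell survival under toxic manganese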 (primary screen). Cell system: Drosophila S2R+ cells. Reagents: long dsRNA against Drosophila genes. Timing: 5 days (4 days knock-down, then 1 day metal exposure). Conditions: manganese chloride added to 15 mM for 24 hours. Measured: 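Luciferase ATP signal used as a proxy for viable cell number, reported as one averaged z-score per dsRNA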. Direction: mean ATP z-score: higher = more ATP than the plate average, more viable cells under manganese. Call rule: 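Called active when the mean ATP z-score is above 1.5 or below -1.5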. Meaning of the calls: active = strong ATP change, up or down; inactive = no strong ATP change.
The deposit covers about 3,100 reagents; below is a part drawn at random. 289 of all reagents (9.3%) count as active. 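Active includes both higher and lower ATP than plate average; check the z-score sign for direction.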 Entries without a mark were called inactive. A plus sign joins genes that one reagent is predicted to hit. Reagent sequences are not shown. The record does not give: the amount of reagent.

| target | DRSC id | mean ATP z-score |
| --- | --- | --- |
| nemy | DRSC05357 | 0.132 |
| nemy | DRSC26532 | -0.685 |
| Snmp1 | DRSC16168 | -0.295 |
| LRP1 | DRSC07238 | -0.171 |
| ppk29 | DRSC04205 | 2.06 (active) |
| ppk29 | DRSC39599 | 0.34 |
| wun | DRSC07719 | -0.113 |
| wun | DRSC36710 | 0.37 |
| wun | DRSC36711 | 1.01 |
| Duox | DRSC00571 | 0.0914 |
| Duox | DRSC27209 | 0.717 |
| meigo | DRSC15877 | -0.145 |
| meigo | DRSC25836 | -0.0502 |
| ETHR | DRSC15915 | 0.0908 |
| ETHR | DRSC29606 | -0.171 |
| CG14777 | DRSC18563 | 0.584 |
| Sdc | DRSC04654 | -0.835 |
| RFeSP | DRSC00702 | -2.36 (active) |
| RFeSP | DRSC27607 | -3.13 (active) |
| Or47b | DRSC07492 | -0.557 |
| Or47b | DRSC39664 | -0.504 |
| CG6231 | DRSC15997 | -0.208 |
| CG43795 | DRSC04192 | 3.34 (active) |
| CG43795 | DRSC04310 | 1.05 |
| CG43795 | DRSC26752 | -0.571 |
| Karybeta3 | DRSC12355 | -0.961 |
| Karybeta3 | DRSC39901 | -0.637 |
| CG31792 | DRSC02604 | 0.13 |
| CG31792 | DRSC39634 | -0.189 |
| crb | DRSC16927 | -0.589 |
| crb | DRSC39156 | 0.305 |
| rst | DRSC17243 | -1.01 |
| rst | DRSC18828 | 0.0816 |
| rst | DRSC39453 | -1.05 |
| Mics1 | DRSC12537 | -1.21 |
| Mics1 | DRSC39452 | -1.42 |
| CG1662 | DRSC19754 | -1.36 |
| AstC-R1 | DRSC10799 | 0.226 |
| AstC-R1 | DRSC29648 | -0.248 |
| PGRP-LF | DRSC28930 | -0.148 |
| CG8051 | DRSC20077 | -0.245 |
| CG8051 | DRSC26855 | -1 |
| CG10486 | DRSC09735 | -0.989 |
| CG10486 | DRSC39429 | 1.91 (active) |
| Drl-2 | DRSC06155 | 0.346 |
| Drl-2 | DRSC06858 | -0.837 |
| Drl-2 | DRSC36862 | 0.608 |
| Drl-2 | DRSC36863 | 0.282 |
| Trpgamma | DRSC03626 | -0.296 |
| Trpgamma | DRSC39800 | -0.871 |
| wdp | DRSC28581 | 0.298 |
| CG42685 | DRSC01971 | -0.321 |
| CG42685 | DRSC39526 | -0.789 |
| Papst2 | DRSC10924 | 1.66 (active) |
| Papst2 | DRSC27212 | 1.11 |
| CG30049 | DRSC21345 | 0.217 |
| CG30049 | DRSC26709 | 1.84 (active) |
| CG33281 | DRSC00421 | -0.161 |
| Gr10a | DRSC22792 | -0.676 |
| Gr10a | DRSC26071 | 0.607 |
| Tmx3 | DRSC10471 | -0.054 |
| Tmx3 | DRSC39606 | -0.964 |

Entries above marked active:
| target | DRSC id | mean ATP z-score |
| --- | --- | --- |
| ppk29 | DRSC04205 | 2.06 (active) |
| RFeSP | DRSC00702 | -2.36 (active) |
| RFeSP | DRSC27607 | -3.13 (active) |
| CG43795 | DRSC04192 | 3.34 (active) |
| CG10486 | DRSC39429 | 1.91 (active) |
| Papst2 | DRSC10924 | 1.66 (active) |
| CG30049 | DRSC26709 | 1.84 (active) |

Next reagents:
| target | DRSC id | mean ATP z-score |
| --- | --- | --- |
| CG9663 | DRSC00724 | -0.852 |
| CG12355 | DRSC09381 | 0.714 |
| CG12355 | DRSC09883 | -0.719 |
| CG4332 | DRSC19890 | 1.05 |
| CG4332 | DRSC39702 | 0.128 |
| kug | DRSC10911 | 0.116 |
| Ir60b | DRSC04217 | 0.299 |
| ppk13 | DRSC02382 | -0.844 |
| CG1688 | DRSC23207 | 0.0853 |
| Toll-7 | DRSC29640 | 0.273 |
| Toll-7 | DRSC39883 | 0.403 |
| sip3 | DRSC29484 | 0.0946 |
| sip3 | DRSC39765 | -0.826 |
| ninaD | DRSC02886 | -0.455 |
| ninaD | DRSC24484 | -0.339 |
| Osi23 | DRSC15074 | -0.043 |
| Ser | DRSC16856 | -0.124 |
| Ser | DRSC25494 | -1.09 |
| Gr22c | DRSC29715 | -0.0256 |
| iav | DRSC25119 | 0.521 |
| iav | DRSC39553 | 0.507 |
| CG1161 | DRSC24956 | 1.06 |
| VhaPPA1-1 | DRSC16170 | 2.27 (active) |
| VhaPPA1-1 | DRSC24144 | 1.37 |
| nAChRbeta2 | DRSC17010 | 1.26 |
| CG14743 | DRSC06479 | -0.497 |
| CG14743 | DRSC39688 | 0.926 |
| inc | DRSC17954 | -0.294 |
| inc | DRSC28898 | -2.11 (active) |
| Gr36c | DRSC02437 | 0.733 |
| Gr36c | DRSC26305 | 0.741 |
| otk2 | DRSC07303 | -0.536 |
| Gr89a | DRSC15023 | -0.142 |
| Gr89a | DRSC39468 | -0.0541 |
| Or46a + asRNA:CR43467 | DRSC07490 | -0.649 |
| Or46a + asRNA:CR43467 | DRSC21590 | 0.416 |
| Or46a + asRNA:CR43467 | DRSC29654 | -0.627 |
| Nrg | DRSC17573 | 3.48 (active) |
| Nrg | DRSC18688 | -0.556 |
| Nrg | DRSC27797 | -0.989 |
| CG43672 + CG43673 | DRSC19452 | 0.173 |
| CG43672 + CG43673 | DRSC20108 | 0.68 |
| CG32246 | DRSC08115 | -0.453 |
| CG32246 | DRSC24361 | 0.175 |
| Pss | DRSC11757 | -1.13 |
| Pss | DRSC39436 | -0.475 |
| CG11069 | DRSC14289 | -0.574 |
| nAChRalpha7 | DRSC20078 | 1.5 |
| nAChRalpha7 | DRSC20081 | 1.37 |
